Measurements from PubChem BioAssay AID504467 (National Center for Advancing Translational Sciences (NCATS), 2011).
The whole screen tested about 330,000 compounds, of which about 7,700 (2.3%) were called active. The shares of active, inactive and inconclusive entries below differ from those in the screen. The call rests on the fitted dose curve; in most records, active means well fitted inhibition curve with a large enough effect; inconclusive means small, poorly fitted or top-dose-only effect, or effect the other way; inactive means flat fitted curve, though single readings scatter. Potencies of inconclusive entries are doubtful fits and often do not repeat.

test: qHTS screen for small molecules that inhibit ELG1-dependent DNA repair in human embryonic kidney (HEK293T) cells expressing luciferase-tagged ELG1; details: HEK293T ELG1-luciferase reporter, luminescence, 16 h, DNA damage induced by 5-fluorouridine; series mostly up to 46.1 µM; further: nearly all actives have a fitted effect of over 55% in size
In short: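 5-Fluorouridine DNA damage + compound/DMSO, 2,000 cells/well, 16 h, 37 °C/5% CO2. ONE-Glo, 30 min RT, luminescence. Readout = decrease in reporter signal.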
Potency means the concentration at half of the fitted maximal effect.

Compound	Potency
Cc1c(C(=O)Nc2ccc3c(c2)OCO3)sc2ncn(CC(=O)N3CC(C)CC(C)C3)c(=O)c12 (centres undefined)	active: 20.6 µM
COc1ccc(/C(N)=N/OC(=O)Cc2ccccc2[N+](=O)[O-])cc1	inconclusive: 29.1 µM [activator, partial curve, poor fit]
Cn1ccnc1SCC(=O)N(C1CCCCC1)C1CCCCC1	inactive
CCOc1ccccc1OCCCC(=O)N1CCN(S(=O)(=O)c2ccc(Cl)cc2)CC1	inactive
N=c1n(Cc2ccccc2)c2ccccc2n1CC(O)COc1ccc(Cl)cc1Cl (centres undefined)	inconclusive: 29.1 µM [inhibitor, partial curve, poor fit]
Clc1ccc(-c2nc(-c3ccccn3)no2)cc1Cl	inconclusive: 0.461 µM [activator, full curve]
CCOC(=O)N1CCN(C(=O)/C=C/c2ccc(C(C)(C)C)cc2)CC1	inconclusive: 10 µM [inhibitor, partial curve, poor fit]
Cc1cn(-c2ccc(Br)cc2)[nH]c1=O	inconclusive: 18.4 µM [activator, partial curve]
CC(C)N(C(=O)NC(=O)Nc1ccccn1)S(C)(=O)=O	inconclusive: 18.4 µM [activator, single point]
CSCCCN1CCC(n2nccc2NC(=O)CCCc2ccccc2)CC1	inactive
CC(C)(C)C1CCc2nc(NC(=O)Cc3cn4ccsc4n3)sc2C1 (centres undefined)	inconclusive: 4.11 µM [activator, single point]
CCOC(=O)c1ccc(N=Nc2c(C)c(C#N)c(O)[nH]c2=O)cc1	inconclusive: 29.1 µM [activator, single point]
COc1ccc(NC(=O)c2ccc(OC)c(S(=O)(=O)N3CCCCC3C)c2)cn1 (centres undefined)	inactive
C/C=C/c1ccc(OCCCCOc2c(OC)cccc2OC)c(OC)c1	inconclusive: 18.4 µM [inhibitor, single point]
N#Cc1cccc(CSc2ncnc(N)n2)c1	inconclusive: 20.6 µM [activator, single point]
COc1ccc(CNCC(O)(c2ccccc2)c2ccc(F)cc2)cc1OC (centres undefined)	inactive
COc1cccc(/C=N/NC(=O)Cn2nc([N+](=O)[O-])cc2C)c1	inconclusive: 0.58 µM [inhibitor, single point]
COc1ccccc1C(=O)C1CCCN(C(=O)c2cn3cc(Cl)ccc3n2)C1 (centres undefined)	inconclusive: 23.1 µM [activator, partial curve, poor fit]
c1ccc(-c2cc(-c3nn4c(-c5ccco5)nnc4s3)c3ccccc3n2)cc1	active: 20.6 µM
C/C=C(/C)C(=O)O[C@@H]1[C@H](OC(C)=O)c2c(ccc3ccc(=O)oc23)OC1(C)C	inactive
CC(=O)c1ccc(N2CCN(C(=S)NCCCN(C)C)CC2)cc1	inconclusive: 20.6 µM [activator, single point]
Cc1nn(CC(=O)c2ccccc2Cl)c(C)c1[N+](=O)[O-]	inconclusive: 20.6 µM [activator, partial curve]

Two entries drawn at random from the list so far:
Compound	Potency
COc1ccc(NC(=O)c2ccc(OC)c(S(=O)(=O)N3CCCCC3C)c2)cn1 (centres undefined)	inactive
Cc1c(C(=O)Nc2ccc3c(c2)OCO3)sc2ncn(CC(=O)N3CC(C)CC(C)C3)c(=O)c12 (centres undefined)	active: 20.6 µM

Continued.

Compound	Potency
Cc1c(Cl)cnc(NC(=O)CSc2nnc3ccccn23)c1Cl	inconclusive: 23.1 µM [activator, single point]
CN(C)c1ccc(/C=N/NC(=O)Cn2nnc3ccccc32)cc1	inconclusive: 29.1 µM [activator, single point]
CN(C)c1nc(NN)nc(Nc2ccc(F)cc2)n1	inconclusive: 7.3 µM [inhibitor, partial curve]
COCc1cc(C)nc2sc(C(=O)Nc3cccc(OC)c3)c(N)c12	inconclusive: 2.24 µM [activator, full curve, poor fit]
COC(=O)C1=C(C)NC(=O)/C1=C\c1cc(C)n(-c2cc(C)cc(C)c2)c1C	inconclusive: 29.1 µM [inhibitor, single point]
Cc1ccc(F)c(NC(=O)/C(C#N)=C(\O)c2ccc(C(C)(C)C)cc2)c1	inactive
CC(N=C(NC#N)Nc1ccncc1)C(C)(C)C (centres undefined)	inactive
Cc1c(C(=O)N2CCN(Cc3ccccc3)CC2)sc2ncnc(N3CCOCC3)c12	inactive
CC1CCCC(NC(=S)Nc2cccc(S(=O)(=O)N(C)C)c2)C1C (centres undefined)	inconclusive: 16.4 µM [inhibitor, single point]
C=CCOc1ccn(C)c(=O)n1	inactive
COc1cccc(NC(=O)CN(C)C(=O)/C=C/c2cn(-c3ccccc3)nc2-c2ccc(C)cc2)c1	inconclusive: 15.8 µM [inhibitor, partial curve, poor fit]
Nc1ccc2c(c1)COc1ccccc1O2	inconclusive: 13 µM [activator, partial curve]
O=C(CSc1nnc(-c2cccs2)o1)N1CCc2ccccc21	inconclusive: 20.6 µM [activator, single point]
S=C(NCc1ccc2c(c1)OCO2)NCc1ccco1	inconclusive: 29.1 µM [activator, single point]
Cc1cccc(N2CCN(C(=O)CNC(=O)C3CCCCC3)CC2)c1C	inconclusive: 29.1 µM [activator, single point]
CCn1c(=N)n(CC(O)COc2cccc(C)c2)c2ccccc21 (centres undefined)	inconclusive: 18.4 µM [inhibitor, partial curve, poor fit]
CC(=O)OCC(=O)[C@@]1(OC(C)=O)[C@@H](C)C[C@H]2[C@@H]3C[C@H](F)C4=CC(=O)C=C[C@]4(C)[C@@]3(F)[C@@H](O)C[C@@]21C	inactive
Cc1c2ccccc2c(C)c2c1ccc1ccccc12	inconclusive: 12.6 µM [activator, partial curve, poor fit]
CC1CCCC(C)N1C(=O)COC(=O)c1ccc(Br)c(S(=O)(=O)N2CCOCC2)c1 (centres undefined)	inconclusive: 29.1 µM [inhibitor, single point]
CCC(=O)NCc1csc(-c2cccs2)n1	inconclusive: 29.1 µM [activator, single point]
Cc1ccc(Cc2nc(-c3cccnc3)no2)cc1	inconclusive: 18.4 µM [activator, single point]
CCCCC1CCC(C(=O)N(C)CC(=O)Nc2cccc(F)c2)CC1 (centres undefined)	inconclusive: 18.3 µM [inhibitor, single point]
